According to patent US20030118646A1, “(R, S'),(R, R')-amphetaminil, compositions and uses thereof” (priority 2001, published 2003):
At least one structure is not confirmed: it was looked up by name or label, or the drawing left a doubt.

Columns and labels:
[1] = system: stereotyped behaviour in normal rats; assay: Induction of stereotyped behaviour in normal rats (stereotypy score 0-7); assay type: in vivo, Male Wistar rats
Protocol: (§1) Male Wistar rats (n=4 per group) were randomly allocated to each drug treatment group. Drugs were administered such that, with the exception of fusaric acid, each rat in each group received all doses of the drug or vehicle in a semi random manner according to the modified Latin Square in Table 1. Compounds were administered at the doses: 0.1, 1 and 10 mg/kg s.c. in 100% DMSO (vehicle). Amphetamine was administered at 0.1, 1 and 5 mg/kg s.c. in saline (vehicle). Fusaric acid was administered at 20, 40 and 80 mg/kg s.c. in saline (vehicle). Rats received each dose of fusaric acid (20, 40 and 80 mg/kg), doses given in order, starting with vehicle. A one-week interval was provided between doses.
(§2) At the start of the experiment, rats were placed in standard perspex behaviour boxes with a visible grid on the floor to allow determination of locomotor activity. […] Following drug administration animals were returned to the behaviour cages and locomotor activity was assessed for a further 5 hours or until baseline (zero activity for 30 minutes) was achieved, whichever was sooner. Locomotor activity was assessed by videoing the rats throughout the experiment, and counting the number of times a rat crossed a grid line over a period of 5 minutes every 10 minutes. […]
The mean and standard error for stereotypy activity for 15 seconds every 10 minutes for each rat at each time point was determined. […]

[2] = system: locomotor activity in normal rats; assay: Locomotor activity in normal rats (grid line crossings); assay type: in vivo, Male Wistar rats
Protocol: as §1, §2
Locomotor activity Data The mean and standard error for locomotor activity during 10 minutes for each rat at each time point was determined. […]

[3] = s.c., whole dose range tested (amphetamine 0.1-5, fusaric acid 20-80, amphetaminils 0.1-10 mg/kg), 300 min

Compound: CCCCc1ccc(C(=O)O)nc1 [Fusaric acid]
- Sleep (stereotypy scoring) ([1]; fusaric acid 20-80 mg/kg s.c., not statistically significant): tended to sleep more
- Effect on stereotypy [1, 3]: did not increase stereotypy
- Effect on normal locomotor activity ([2]; 40 mg/kg s.c., but not 80 mg/kg): small, but significant inhibition of normal activity
- Effect on locomotor activity [2, 3]: did not increase locomotor activity
